# Results published in the supplement of paper PMC12823440, “Inhibitors supercharge kinase turnover through native proteolytic circuits” (Nature, 2025).
# Amino acid sequences for entries named in this document (tags omitted). A change or cut given only in a name is not applied to a line headed by its entry.
# UniProt Q9UQM7, whole entry: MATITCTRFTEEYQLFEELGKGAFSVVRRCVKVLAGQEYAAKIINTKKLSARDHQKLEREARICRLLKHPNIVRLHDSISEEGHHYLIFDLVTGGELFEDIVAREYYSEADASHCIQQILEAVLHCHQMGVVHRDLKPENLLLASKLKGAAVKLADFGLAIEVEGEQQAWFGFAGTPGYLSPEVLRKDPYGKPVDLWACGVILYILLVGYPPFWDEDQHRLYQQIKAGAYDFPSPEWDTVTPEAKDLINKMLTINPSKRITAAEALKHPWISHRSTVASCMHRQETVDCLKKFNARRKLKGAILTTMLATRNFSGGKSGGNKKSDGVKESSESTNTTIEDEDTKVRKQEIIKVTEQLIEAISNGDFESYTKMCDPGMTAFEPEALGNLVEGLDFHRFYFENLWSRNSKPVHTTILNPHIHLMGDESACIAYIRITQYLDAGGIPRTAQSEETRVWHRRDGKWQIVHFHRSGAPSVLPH
# UniProt Q13555: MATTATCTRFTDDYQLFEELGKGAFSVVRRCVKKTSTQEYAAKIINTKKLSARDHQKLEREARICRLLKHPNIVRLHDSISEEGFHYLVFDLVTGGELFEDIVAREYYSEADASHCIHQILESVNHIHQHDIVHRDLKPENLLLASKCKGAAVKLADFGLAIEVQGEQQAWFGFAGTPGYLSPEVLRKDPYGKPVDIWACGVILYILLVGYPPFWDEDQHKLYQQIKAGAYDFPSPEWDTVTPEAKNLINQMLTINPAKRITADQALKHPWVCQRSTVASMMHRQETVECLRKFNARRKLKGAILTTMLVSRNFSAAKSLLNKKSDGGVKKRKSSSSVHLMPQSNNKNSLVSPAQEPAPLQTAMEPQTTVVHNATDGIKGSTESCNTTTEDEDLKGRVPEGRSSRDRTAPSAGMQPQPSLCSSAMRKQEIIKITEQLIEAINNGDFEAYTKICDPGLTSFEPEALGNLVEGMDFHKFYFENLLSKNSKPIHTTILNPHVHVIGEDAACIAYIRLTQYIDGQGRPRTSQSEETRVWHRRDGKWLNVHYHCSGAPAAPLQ
# UniProt Q00526: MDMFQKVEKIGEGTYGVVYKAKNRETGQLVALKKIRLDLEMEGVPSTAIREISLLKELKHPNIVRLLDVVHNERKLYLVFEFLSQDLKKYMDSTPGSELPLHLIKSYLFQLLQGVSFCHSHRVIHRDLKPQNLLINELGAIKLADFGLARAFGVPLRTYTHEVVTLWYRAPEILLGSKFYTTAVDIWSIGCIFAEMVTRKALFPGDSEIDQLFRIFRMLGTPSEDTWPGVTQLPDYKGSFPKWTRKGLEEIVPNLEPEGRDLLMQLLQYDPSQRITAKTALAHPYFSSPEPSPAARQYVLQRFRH
# UniProt Q00535, whole entry, looked up: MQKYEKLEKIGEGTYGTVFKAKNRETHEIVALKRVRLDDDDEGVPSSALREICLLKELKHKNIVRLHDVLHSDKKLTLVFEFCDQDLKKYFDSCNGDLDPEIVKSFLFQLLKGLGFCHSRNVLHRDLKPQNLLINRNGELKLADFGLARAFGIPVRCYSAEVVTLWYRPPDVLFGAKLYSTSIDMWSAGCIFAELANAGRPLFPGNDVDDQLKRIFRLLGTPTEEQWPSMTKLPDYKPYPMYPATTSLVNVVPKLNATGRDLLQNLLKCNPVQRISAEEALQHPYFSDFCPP
# UniProt Q00534, whole entry: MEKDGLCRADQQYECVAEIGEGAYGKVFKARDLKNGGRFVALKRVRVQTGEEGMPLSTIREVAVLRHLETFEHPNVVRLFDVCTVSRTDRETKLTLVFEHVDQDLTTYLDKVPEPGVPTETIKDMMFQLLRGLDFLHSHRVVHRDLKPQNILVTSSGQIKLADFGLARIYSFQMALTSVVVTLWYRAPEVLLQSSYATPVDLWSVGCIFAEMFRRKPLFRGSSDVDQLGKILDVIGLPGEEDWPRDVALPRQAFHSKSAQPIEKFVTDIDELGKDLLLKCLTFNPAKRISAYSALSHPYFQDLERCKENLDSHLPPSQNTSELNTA
# UniProt P07333, whole entry: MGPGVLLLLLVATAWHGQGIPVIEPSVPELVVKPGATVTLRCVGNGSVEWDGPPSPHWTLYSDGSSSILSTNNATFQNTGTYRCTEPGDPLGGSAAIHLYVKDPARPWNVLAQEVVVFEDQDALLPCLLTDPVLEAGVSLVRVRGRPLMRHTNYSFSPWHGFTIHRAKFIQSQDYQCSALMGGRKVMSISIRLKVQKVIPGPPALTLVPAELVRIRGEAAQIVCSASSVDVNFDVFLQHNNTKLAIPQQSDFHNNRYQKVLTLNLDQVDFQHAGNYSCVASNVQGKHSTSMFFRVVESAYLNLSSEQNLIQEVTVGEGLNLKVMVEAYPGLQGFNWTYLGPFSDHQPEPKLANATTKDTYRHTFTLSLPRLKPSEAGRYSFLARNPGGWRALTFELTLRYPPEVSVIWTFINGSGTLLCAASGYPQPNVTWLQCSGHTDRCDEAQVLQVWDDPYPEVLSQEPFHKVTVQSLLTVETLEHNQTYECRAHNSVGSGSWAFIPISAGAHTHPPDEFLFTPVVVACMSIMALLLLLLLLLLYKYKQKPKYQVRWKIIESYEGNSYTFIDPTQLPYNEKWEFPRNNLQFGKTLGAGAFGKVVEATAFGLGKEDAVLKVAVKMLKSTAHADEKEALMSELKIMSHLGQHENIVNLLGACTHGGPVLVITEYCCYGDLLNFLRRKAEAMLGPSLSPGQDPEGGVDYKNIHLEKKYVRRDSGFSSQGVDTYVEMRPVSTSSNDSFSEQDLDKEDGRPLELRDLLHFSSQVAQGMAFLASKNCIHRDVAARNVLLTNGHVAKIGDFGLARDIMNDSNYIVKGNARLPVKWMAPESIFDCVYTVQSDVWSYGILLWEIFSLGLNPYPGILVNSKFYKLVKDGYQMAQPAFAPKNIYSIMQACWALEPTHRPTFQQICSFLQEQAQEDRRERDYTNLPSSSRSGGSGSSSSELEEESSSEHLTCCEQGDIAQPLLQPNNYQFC
# UniProt P41240: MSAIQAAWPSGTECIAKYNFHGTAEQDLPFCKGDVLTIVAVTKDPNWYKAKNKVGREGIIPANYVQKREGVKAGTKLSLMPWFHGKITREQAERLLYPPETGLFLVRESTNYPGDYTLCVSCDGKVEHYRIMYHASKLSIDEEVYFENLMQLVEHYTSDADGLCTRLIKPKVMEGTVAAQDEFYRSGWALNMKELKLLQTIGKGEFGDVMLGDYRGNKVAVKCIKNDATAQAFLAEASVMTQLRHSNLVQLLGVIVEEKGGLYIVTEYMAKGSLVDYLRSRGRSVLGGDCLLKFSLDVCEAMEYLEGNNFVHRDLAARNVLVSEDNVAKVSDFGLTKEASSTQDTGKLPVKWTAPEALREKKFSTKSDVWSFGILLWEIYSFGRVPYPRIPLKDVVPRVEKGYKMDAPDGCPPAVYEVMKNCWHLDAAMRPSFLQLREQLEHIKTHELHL
# UniProt P48729: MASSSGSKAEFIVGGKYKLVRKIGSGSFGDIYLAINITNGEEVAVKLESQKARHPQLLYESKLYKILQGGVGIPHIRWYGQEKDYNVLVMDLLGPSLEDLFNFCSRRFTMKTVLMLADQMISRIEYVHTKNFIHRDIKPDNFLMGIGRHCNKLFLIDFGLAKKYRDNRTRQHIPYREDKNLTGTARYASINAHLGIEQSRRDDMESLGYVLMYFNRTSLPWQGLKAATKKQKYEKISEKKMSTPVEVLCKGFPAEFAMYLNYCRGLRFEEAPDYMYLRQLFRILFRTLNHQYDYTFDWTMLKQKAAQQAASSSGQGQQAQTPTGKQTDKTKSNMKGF
# UniProt P48730: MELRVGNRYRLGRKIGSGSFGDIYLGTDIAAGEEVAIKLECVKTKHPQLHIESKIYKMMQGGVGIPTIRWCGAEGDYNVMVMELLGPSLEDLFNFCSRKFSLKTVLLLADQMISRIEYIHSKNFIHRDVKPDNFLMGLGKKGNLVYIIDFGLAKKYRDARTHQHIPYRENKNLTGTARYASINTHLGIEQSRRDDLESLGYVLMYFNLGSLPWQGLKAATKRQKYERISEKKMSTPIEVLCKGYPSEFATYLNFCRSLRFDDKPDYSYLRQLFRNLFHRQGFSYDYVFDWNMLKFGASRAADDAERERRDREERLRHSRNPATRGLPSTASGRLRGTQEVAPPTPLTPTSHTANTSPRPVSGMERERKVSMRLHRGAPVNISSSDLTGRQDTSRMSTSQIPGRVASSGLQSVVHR
# UniProt Q08345: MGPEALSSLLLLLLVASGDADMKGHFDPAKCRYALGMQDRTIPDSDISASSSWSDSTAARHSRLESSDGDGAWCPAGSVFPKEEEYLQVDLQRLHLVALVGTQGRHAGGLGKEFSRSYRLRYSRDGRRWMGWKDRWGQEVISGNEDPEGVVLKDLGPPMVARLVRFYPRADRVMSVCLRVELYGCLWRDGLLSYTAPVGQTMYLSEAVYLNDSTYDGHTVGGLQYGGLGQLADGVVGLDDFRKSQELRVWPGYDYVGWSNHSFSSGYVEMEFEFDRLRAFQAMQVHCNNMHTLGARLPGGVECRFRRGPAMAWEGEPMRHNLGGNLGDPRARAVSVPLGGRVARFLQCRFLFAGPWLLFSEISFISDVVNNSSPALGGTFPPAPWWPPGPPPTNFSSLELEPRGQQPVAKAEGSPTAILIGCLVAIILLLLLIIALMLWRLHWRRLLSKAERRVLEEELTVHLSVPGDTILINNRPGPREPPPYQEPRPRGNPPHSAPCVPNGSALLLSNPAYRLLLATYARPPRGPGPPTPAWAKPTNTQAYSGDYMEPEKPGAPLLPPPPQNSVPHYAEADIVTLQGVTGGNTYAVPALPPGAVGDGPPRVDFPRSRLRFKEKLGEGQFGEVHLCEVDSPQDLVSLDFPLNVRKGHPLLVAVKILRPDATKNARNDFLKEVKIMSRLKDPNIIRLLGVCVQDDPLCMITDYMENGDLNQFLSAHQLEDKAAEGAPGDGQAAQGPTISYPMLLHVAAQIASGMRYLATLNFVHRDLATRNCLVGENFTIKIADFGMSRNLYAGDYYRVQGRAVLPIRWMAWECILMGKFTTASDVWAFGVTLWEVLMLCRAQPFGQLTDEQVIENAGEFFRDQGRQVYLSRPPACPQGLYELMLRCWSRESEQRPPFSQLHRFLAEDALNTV
# UniProt Q9Y463, whole entry, looked up: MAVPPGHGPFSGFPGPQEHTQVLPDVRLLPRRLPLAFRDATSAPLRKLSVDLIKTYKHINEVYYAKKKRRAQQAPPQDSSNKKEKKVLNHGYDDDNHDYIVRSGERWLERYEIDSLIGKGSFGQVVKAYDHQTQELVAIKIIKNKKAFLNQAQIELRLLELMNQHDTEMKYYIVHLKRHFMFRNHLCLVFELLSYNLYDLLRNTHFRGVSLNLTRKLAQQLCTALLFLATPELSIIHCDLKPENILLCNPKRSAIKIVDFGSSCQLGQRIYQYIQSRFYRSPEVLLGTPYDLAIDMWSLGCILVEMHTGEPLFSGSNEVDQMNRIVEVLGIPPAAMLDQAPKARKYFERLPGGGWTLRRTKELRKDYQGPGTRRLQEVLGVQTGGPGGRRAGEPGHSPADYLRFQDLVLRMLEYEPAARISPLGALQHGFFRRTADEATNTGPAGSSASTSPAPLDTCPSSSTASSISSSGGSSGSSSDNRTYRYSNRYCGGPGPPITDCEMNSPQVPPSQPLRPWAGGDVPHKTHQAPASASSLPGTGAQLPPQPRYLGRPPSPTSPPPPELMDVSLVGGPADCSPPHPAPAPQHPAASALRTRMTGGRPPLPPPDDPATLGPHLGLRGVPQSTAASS
# UniProt Q92630: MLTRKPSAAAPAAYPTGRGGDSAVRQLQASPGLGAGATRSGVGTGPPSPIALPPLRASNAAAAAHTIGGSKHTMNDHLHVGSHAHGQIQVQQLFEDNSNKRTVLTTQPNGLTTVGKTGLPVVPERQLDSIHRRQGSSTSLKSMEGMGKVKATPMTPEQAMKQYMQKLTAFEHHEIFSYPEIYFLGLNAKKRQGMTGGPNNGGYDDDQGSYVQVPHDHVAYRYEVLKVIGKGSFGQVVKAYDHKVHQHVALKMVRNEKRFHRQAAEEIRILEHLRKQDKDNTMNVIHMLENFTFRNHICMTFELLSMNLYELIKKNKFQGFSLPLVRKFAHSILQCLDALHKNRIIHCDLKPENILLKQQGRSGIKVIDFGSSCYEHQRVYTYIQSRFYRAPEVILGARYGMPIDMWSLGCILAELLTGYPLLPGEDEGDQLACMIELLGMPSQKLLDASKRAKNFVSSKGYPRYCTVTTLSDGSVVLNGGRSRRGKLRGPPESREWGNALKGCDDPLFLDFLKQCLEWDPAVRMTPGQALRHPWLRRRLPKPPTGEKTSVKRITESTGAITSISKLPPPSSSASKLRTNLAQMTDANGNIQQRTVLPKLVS
# This is one part of the list. Hit calls seldom repeat between salt and free forms of one compound.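 Kinases were expressed as nanoluciferase fusions in K562 cells and luminescence was read every 4 h between 2 and 18 h as percent of control, DMSO set to 100% and a positive control to 0%. A time point counts as decreased when the signal drops significantly (2 sigma). The hit call is the authors' own, does not follow from the count of time points alone, and its rule is not shown.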
# Legend:
# Experiment in all cases: number of time points (of 5) at which kinase-Nluc abundance scored as decreased, DMSO-normalised (count); higher = more persistent destabilization
# Conditions in all cases: K562; 2-18 h
# CAMK2A = CAMK2A (UniProt Q9UQM7)
# CAMK2G = CAMK2G (UniProt Q13555)
# CDK10 = CDK10 (UniProt Q15131)
# CDK2 = CDK2 (UniProt P24941)
# CDK3 = CDK3 (UniProt Q00526)
# CDK5 = CDK5 (UniProt Q00535)
# CDK6 = CDK6 (UniProt Q00534)
# CHEK2 = CHEK2 (UniProt O96017)
# CSF1R = CSF1R (UniProt P07333)
# CSK = CSK (UniProt P41240)
# CSNK1A1 = CSNK1A1 (UniProt P48729)
# CSNK1D = CSNK1D (UniProt P48730)
# DDR1 = DDR1 (UniProt Q08345)
# DYRK1B = DYRK1B (UniProt Q9Y463)
# DYRK2 = DYRK2 (UniProt Q92630)
# EGFR = EGFR (UniProt P00533)
# EGFR_G719S = EGFR_G719S (UniProt P00533)
# EGFR_G719S_T790M = EGFR_G719S_T790M (UniProt P00533)
# EGFR_L718V = EGFR_L718V (UniProt P00533)
# EGFR_L858R = EGFR_L858R (UniProt P00533)
SMILES,number of time points (CAMK2A),number of time points (CAMK2G),number of time points (CDK10),number of time points (CDK2),number of time points (CDK3),number of time points (CDK5),number of time points (CDK6),number of time points (CHEK2),number of time points (CSF1R),number of time points (CSK),number of time points (CSNK1A1),number of time points (CSNK1D),number of time points (DDR1),number of time points (DYRK1B),number of time points (DYRK2),number of time points (EGFR),number of time points (EGFR_G719S),number of time points (EGFR_G719S_T790M),number of time points (EGFR_L718V),number of time points (EGFR_L858R)
CC(C)(/C=C(\C#N)C(=O)N1CCC[C@@H](n2nc(-c3ccc(Oc4ccccc4)cc3F)c3c(N)ncnc32)C1)N1CCN(C2COC2)CC1 (2.5 µM),0,0,0,0,0,0,0,0,0,0,0,0,0,0,0,0,0,0,0,0
C=CC(=O)N1CCC[C@@H](n2nc(-c3ccc(Oc4ccccc4)cc3)c(C(N)=O)c2N)C1 [Btk inhibitor 2] (10 µM),0,0,0,0,0,0,0,0,0,0,0,0,0,0,1,0,0,0,0,0
Cc1nc(N)sc1-c1ccnc(Nc2ccc(N3CCOCC3)cc2)n1 (10 µM),0,0,0,0,0,0,0,0,0,0,1,,0,0,0,,,,,
CCN1C(=O)N(c2c(F)c(OC)cc(OC)c2F)Cc2cnc3[nH]c(CN4CCOCC4)cc3c21 [Pemigatinib] (10 µM),0,0,0,0,0,0,0,0,0,0,0,0,0,0,0,0,0,0,0,0
COc1cc(N2CCC(N)CC2)ccc1Nc1ncc(Cl)c(-c2c[nH]c3ccccc23)n1 (2.5 µM),0,0,0,0,0,0,0,0,0,0,0,0,0,0,0,0,0,0,0,0
O=C(NOC[C@H](O)CO)c1ccc(F)c(F)c1Nc1ccc(I)cc1F (2.5 µM),0,0,0,0,0,0,0,0,0,0,0,0,0,0,0,0,0,0,0,0
FC(F)(F)c1ccc(CNc2ccc(Cc3c[nH]c4ncc(Cl)cc34)cn2)cc1 (10 µM),0,0,0,0,0,0,1,0,0,0,0,0,0,0,0,0,0,0,0,0
Cc1ccc2c(Nc3ccc(Cl)cc3)nccc2c1Nc1ncccc1-c1ncnc2nc[nH]c12 [Raf inhibitor 1] (2.5 µM),0,0,0,0,0,0,0,0,0,0,0,0,0,0,0,0,0,0,0,0
CCn1cc(-c2ccnc3[nH]c(-c4cccc(CN(C)C)c4)cc23)c(-c2ccc(NC(=O)N(C)C)cc2)n1 (2.5 µM),0,0,0,0,0,0,0,0,0,0,0,,0,0,0,0,0,0,0,0
CN(C)C(=O)/C(C#N)=C/c1ccc(-c2nc3cnc4[nH]ccc4c3n2C2CCCCC2)o1 (10 µM),0,0,0,0,0,0,0,0,0,0,0,0,,0,0,0,0,0,0,0
Cc1cccc([C@@H](CO)NC(=O)[C@@H](C)N2Cc3ccc(-c4nc(NC5CCOCC5)ncc4Cl)cc3C2=O)c1 [ERK1/2 inhibitor 1] (10 µM),0,0,0,0,0,0,0,0,0,0,0,0,0,0,0,0,0,0,0,0
Cc1c(NC(=O)c2cc3c(s2)CCCC3)cccc1-c1cn(C)c(=O)c(Nc2ccc([C@@H]3C(=O)N(C)CCN3C)cc2)n1 (10 µM),0,0,0,0,0,0,0,0,0,0,0,0,0,0,0,0,0,0,0,0

# Some entries already given, reduced to number of time points (EGFR_L718V) and number of time points (EGFR):
SMILES	number of time points (EGFR_L718V)	number of time points (EGFR)
CCn1cc(-c2ccnc3[nH]c(-c4cccc(CN(C)C)c4)cc23)c(-c2ccc(NC(=O)N(C)C)cc2)n1 (2.5 µM)	0	0
CN(C)C(=O)/C(C#N)=C/c1ccc(-c2nc3cnc4[nH]ccc4c3n2C2CCCCC2)o1 (10 µM)	0	0
